Results are given in words; binding and its absence hold for the method and conditions named. In cells and extracts the contact can be indirect. Here binding means that the protein was enriched with, or labelled near, the bait; the list need not be complete. Tags and fused reporters may be left off the sequences shown.
T1: GFP–SAP54 (35S:GFP–SAP54, amino acids 34 to 124) in transgenic Arabidopsis (Aster Yellows phytoplasma strain Witches' Broom (AY-WB)) (UniProt Q2NJQ2)
T1 sequence: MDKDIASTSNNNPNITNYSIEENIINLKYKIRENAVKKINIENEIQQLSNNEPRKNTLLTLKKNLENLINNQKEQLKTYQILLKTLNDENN

Chains of the proteins cited; added tags and fusions are not shown.
UniProt P35631: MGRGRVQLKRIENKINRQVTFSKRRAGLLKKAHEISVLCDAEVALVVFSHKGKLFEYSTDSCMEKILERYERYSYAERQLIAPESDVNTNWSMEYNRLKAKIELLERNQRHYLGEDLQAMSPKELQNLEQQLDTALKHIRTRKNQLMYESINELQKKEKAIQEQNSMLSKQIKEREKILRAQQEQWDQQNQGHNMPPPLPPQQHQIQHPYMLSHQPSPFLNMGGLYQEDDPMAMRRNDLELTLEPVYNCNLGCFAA
UniProt P29382: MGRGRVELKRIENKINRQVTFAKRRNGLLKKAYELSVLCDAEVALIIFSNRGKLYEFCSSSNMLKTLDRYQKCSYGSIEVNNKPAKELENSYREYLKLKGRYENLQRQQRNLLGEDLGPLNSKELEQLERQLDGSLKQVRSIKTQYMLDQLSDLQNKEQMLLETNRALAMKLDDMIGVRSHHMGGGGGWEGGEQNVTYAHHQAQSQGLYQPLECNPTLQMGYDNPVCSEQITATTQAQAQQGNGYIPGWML
UniProt P29384: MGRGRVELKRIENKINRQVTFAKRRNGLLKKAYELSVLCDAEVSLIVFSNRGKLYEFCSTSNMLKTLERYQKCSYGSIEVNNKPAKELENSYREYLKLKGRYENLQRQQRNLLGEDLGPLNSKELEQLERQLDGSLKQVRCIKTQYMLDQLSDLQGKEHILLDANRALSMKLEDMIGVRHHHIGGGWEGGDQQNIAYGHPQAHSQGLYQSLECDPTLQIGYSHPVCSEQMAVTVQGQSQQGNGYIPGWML
UniProt O64645: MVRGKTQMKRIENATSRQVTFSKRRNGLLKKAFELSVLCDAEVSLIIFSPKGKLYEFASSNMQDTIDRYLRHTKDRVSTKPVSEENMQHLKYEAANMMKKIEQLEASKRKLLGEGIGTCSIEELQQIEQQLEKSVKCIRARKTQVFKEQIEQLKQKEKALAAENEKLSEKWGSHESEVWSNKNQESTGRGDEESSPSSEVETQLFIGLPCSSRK


biological target: T1, GFP–SAP54 (35S:GFP–SAP54, amino acids 34 to 124) in transgenic Arabidopsis (Aster Yellows phytoplasma strain Witches' Broom (AY-WB)); assay: affinity purification with mass spectrometry; GFP-binding resin on inflorescence extracts of transgenic Arabidopsis expressing 35S:GFP–SAP54 or 35S:GFP; gel slices, LC-MS/MS

| Molecule | binding |
| --- | --- |
| AP1, endogenous in Arabidopsis inflorescences (from UniProt P35631 1-256) | binds |
| SEP1, endogenous in Arabidopsis inflorescences (from UniProt P29382 1-251) | binds |
| SEP2, endogenous in Arabidopsis inflorescences (from UniProt P29384 1-250) | binds |
| SUPPRESSOR OF OVEREXPRESSION OF CONSTANS1 (SOC1), endogenous in Arabidopsis inflorescences (from UniProt O64645 1-214) | binds |
| MAF1, endogenous in Arabidopsis inflorescences (protein, UniProt Q9AT76 1-196) MGRRKIEIKRIENKSSRQVTFSKRRNGLIDKARQLSILCESSVAVVVVSASGKLYDSSSGDDISKIIDRYEIQHADELRALDLEEKIQNYLPHKELLETVQSKLEEPNVDNVSVDSLISLEEQLETALSVSRARKAELMMEYIESLKEKEKLLREENQVLASQMGKNTLLATDDERGMFPGSSSGNKIPETLPLLN | binds |

From paper PMC3979655
